No constants are given. Whether binding was seen depends on the method and setting. Some entries that bind do so weakly or less than the wild type.
How the values were obtained:
Assay in all cases: flow cytometry on transfected Hek-293T cells
[1] = target: T1, CD39 mutant 2A (human) (UniProt P49961)
T1 sequence: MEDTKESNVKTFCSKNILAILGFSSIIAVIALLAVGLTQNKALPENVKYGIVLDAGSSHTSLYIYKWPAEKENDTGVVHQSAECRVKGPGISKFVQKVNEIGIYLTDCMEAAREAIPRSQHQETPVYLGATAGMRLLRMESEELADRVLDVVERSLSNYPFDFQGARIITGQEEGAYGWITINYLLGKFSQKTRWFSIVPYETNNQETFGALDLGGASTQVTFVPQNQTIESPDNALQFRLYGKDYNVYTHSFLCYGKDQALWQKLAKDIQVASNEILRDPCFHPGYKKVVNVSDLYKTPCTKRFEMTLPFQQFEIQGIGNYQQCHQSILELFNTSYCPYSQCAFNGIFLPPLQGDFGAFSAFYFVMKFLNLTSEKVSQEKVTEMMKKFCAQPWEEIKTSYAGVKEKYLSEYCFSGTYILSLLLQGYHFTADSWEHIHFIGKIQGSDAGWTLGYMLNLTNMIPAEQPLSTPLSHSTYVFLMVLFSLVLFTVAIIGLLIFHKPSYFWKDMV

[2] = target: T2, CD39 mutant 10B (human) (UniProt P49961)
T2 sequence: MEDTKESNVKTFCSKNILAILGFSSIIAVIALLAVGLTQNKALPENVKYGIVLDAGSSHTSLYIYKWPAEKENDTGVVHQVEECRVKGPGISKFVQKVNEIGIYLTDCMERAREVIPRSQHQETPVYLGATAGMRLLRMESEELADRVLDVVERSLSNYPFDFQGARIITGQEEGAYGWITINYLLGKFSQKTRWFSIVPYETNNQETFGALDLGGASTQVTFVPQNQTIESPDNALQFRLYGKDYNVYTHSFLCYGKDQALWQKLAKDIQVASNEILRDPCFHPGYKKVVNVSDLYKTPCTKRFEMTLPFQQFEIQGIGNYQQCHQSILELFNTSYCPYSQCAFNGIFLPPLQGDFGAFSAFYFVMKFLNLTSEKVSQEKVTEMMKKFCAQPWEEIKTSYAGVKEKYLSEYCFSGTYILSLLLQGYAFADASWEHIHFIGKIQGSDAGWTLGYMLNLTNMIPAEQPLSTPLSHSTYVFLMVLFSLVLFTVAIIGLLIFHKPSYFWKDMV

[3] = target: T3, CD39 mutant 7 (human) (UniProt P49961)
T3 sequence: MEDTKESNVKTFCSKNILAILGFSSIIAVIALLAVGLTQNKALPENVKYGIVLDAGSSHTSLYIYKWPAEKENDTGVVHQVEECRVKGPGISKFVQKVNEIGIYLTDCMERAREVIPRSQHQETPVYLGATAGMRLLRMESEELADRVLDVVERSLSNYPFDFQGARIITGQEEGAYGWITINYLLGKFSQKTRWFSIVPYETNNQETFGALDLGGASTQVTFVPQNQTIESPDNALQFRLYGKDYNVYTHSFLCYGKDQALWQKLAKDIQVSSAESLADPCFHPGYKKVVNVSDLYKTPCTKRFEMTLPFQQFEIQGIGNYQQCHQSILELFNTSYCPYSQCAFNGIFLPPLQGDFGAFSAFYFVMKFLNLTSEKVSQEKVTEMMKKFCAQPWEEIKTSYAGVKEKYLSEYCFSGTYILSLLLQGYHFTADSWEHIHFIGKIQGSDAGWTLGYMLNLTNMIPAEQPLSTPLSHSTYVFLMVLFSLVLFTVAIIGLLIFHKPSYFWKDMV

[4] = target: T4, CD39 mutant 16 (human) (UniProt P49961)
T4 sequence: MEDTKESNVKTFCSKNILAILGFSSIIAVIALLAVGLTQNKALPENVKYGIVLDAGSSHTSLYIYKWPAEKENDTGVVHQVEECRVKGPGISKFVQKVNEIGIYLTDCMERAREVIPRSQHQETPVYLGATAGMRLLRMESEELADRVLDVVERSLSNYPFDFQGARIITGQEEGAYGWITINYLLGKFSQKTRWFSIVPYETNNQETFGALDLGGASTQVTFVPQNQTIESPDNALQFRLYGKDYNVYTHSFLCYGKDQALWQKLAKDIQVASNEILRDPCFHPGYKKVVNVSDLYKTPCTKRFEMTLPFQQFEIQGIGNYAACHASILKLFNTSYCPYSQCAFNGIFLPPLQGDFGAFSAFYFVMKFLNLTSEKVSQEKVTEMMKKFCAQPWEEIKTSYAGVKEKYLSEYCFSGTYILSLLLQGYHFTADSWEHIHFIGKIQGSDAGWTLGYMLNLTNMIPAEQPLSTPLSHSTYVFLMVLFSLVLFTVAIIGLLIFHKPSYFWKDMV

[5] = target: T5, CD39 mutant 2B (human) (UniProt P49961)
T5 sequence: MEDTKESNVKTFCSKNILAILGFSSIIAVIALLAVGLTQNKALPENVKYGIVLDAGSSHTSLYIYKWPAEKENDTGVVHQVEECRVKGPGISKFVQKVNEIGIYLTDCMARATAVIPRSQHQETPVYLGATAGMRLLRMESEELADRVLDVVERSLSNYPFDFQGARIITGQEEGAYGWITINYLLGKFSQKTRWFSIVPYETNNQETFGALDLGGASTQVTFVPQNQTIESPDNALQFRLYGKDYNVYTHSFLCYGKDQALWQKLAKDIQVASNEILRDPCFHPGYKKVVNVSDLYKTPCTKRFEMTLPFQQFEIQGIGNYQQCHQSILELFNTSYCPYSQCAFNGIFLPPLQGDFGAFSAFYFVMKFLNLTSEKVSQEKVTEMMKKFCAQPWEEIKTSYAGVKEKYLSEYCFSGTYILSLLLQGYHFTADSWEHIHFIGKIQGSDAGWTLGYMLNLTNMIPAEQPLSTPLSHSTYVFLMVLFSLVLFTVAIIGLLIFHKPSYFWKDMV

Measured: binding

B1: antibody I-399 (antibody, V domains shown)
VH: PVQLQQPGAEVVMPGASVKLSCKASGYTFTSFWMNWMRQRPGQGLEWIGEIDPSDFYTNSNQRFKGKATLTVDKSSSTAYMQLSSLTSEDSAVYFCARGDFGWYFDVWGTGTSVTVSS
VL: EIVLTQSPTTMTSSPGEKITFTCSASSSINSNYLHWYQQKPGFSPKLLIYRTSNLASGVPTRFSGSGSGTSYSLTIGTMEAEDVATYYCQQGSSLPRTFGGGTKLEIK
binds: all assays above

From US20190218304A1, “POTENTIATING THE EFFECT OF ATP RELEASE” (INNATE PHARMA, priority 2017, published 2019)
